PubChem BioAssay AID540276 (National Center for Advancing Translational Sciences (NCATS), 2011)
Screen size: about 300,000 compounds; about 5,400 (1.8%) were called active. Inconclusive means that the source gave no clear call. Such entries were picked first, then a sample of the others. Calls come from the whole dose curve; tested in HEK293 cells. A potency beside an inconclusive call is a rough fit, not a confirmed value.
% is set by controls: 0 for no effect and ±100 for the full control effect; potency is the fitted concentration of half-maximal effect.

Test: qHTS for inhibitors of binding or entry into cells for Marburg Virus
Settings: Marburg virus pseudotyped entry inhibition, cell reporter; activity change, negative = inhibition: at 37.8 µM (top of the series) unless noted
For `O=C(CN1CCCc2ccccc21)N/N=C/c1ccc(O)cc1O`, the Potency was inconclusive: 14.1 µM [inhibitor, single point].
With `O=C(O)c1ccc(Nc2nc3ccccc3c3nncn23)cc1` the “activity change, negative = inhibition” value was inactive: 4.23% [at 46.1 µM].
With `CC1CCC(NC(=O)CN2CCCN(Cc3ccc(F)cc3Cl)C2=O)CC1` (stereo unspecified) the Potency was inconclusive: 11.2 µM [inhibitor, partial curve, poor fit].
In the case of `O=C(NNC1=C(C(=O)C(F)(F)F)CCC1)c1ccc(Br)cc1`, the Potency is reported as inconclusive: 29.1 µM [inhibitor, single point].
With `O=C(Nc1nnc(C2CC2)s1)C1Cc2ccccc2CN1S(=O)(=O)c1cccs1` (stereo unspecified) the “activity change, negative = inhibition” value was inactive: -1.67%.
With `O=C(Nc1c(C(=O)c2ccccc2)oc2ccccc12)c1cc(-c2ccccc2O)n[nH]1` the Potency was inconclusive: 25.1 µM [inhibitor, partial curve, poor fit].
For `Cc1cc(C)c(NC(=O)Cn2c(=O)n(-c3cccc(C(F)(F)F)c3)c(=O)c3c(C)c(C)sc32)c(C)c1`, the “activity change, negative = inhibition” value was inactive: -30.5% [at 46.1 µM].
With `c1cncc(-c2nn[nH]n2)c1` the “activity change, negative = inhibition” value was inactive: 6.8%.
For `Cc1n[nH]c(C)c1CCN(C)Cc1cn(C)nc1-c1ccc2c(c1)OCCO2`, the Potency was inconclusive: 35.5 µM [inhibitor, single point].
With `O=C(COC(=O)/C=C/c1ccc(OC(F)F)cc1)Nc1cccc(S(=O)(=O)N2CCOCC2)c1` the “activity change, negative = inhibition” value was inactive: -13.1% [at 46.1 µM].
In the case of `COCCNC(=O)CCn1c(=O)c2cc(OC)c(OC)cc2n(CC(=O)Nc2ccc(F)c(Cl)c2)c1=O`, the “activity change, negative = inhibition” value is reported as inactive: 14% [at 46.1 µM].
In the case of `Cc1ccsc1C(=O)NNC(=O)C1C2C=CC(C2)C1C(=O)O` (stereo unspecified), the Potency is reported as inconclusive: 0.794 µM [activator, full curve, poor fit].
With `Cc1ccccc1N1CCN(Cc2ccc3c(c2)OCO3)CC1` the Potency was inconclusive: 22.4 µM [inhibitor, single point].
With `Cc1cccc(NC(=O)c2ccccc2C(=O)Nc2cccc(C)c2)c1` the Potency was inconclusive: 3.98 µM [inhibitor, single point].
In the case of `COc1cc(C(=O)OC2CCOC2=O)c([N+](=O)[O-])cc1OC` (stereo unspecified), the Potency is reported as inconclusive: 35.5 µM [activator, single point].
For `CC1CCN(S(=O)(=O)c2ccc(NC(=O)C3CCN(C(=O)c4ccco4)CC3)cc2)CC1`, the Potency was inconclusive: 22.4 µM [inhibitor, single point].
With `CC(C)(C)NC(=O)C(c1ccc(F)cc1)N(C(=O)CCC(=O)Nc1ccccn1)C1CCCC1` (stereo unspecified) the Potency was inconclusive: 35.5 µM [inhibitor, single point].
For `Cc1cccc(C2CC3(CC(C)(C)NC(=S)N3)Oc3cc(O)ccc32)c1` (stereo unspecified), the Potency was inconclusive: 31.6 µM [inhibitor, single point].
In the case of `CN(C)C(=O)c1cnc(-c2ccccc2)nc1-c1ccccc1`, the Potency is reported as inconclusive: 15.8 µM [activator, single point].
For `COc1cccc(/C=C/C(=O)c2ccc(NS(=O)(=O)c3ccc(C)cc3)cc2)c1`, the Potency was inconclusive: 7.31 µM [inhibitor, partial curve].
For `Cc1ccc2c(c1)c1c3n2CCN(CC(N)=O)C3CCC1` (stereo unspecified), the “activity change, negative = inhibition” value was inactive: -2.8% [at 46.1 µM].
In the case of `COc1cccc(C(=O)Nc2ccc(NC(=O)C3CCCCC3)nc2)c1`, the Potency is reported as inconclusive: 22.4 µM [inhibitor, single point].
With `COc1ccc(C(=O)NC2CC(C)(C)Cc3c2cnn3-c2ccccc2)cc1OC` (stereo unspecified) the Potency was inconclusive: 3.16 µM [inhibitor, single point].
With `COc1ccc(C2C(C(=O)Nc3cccnc3)=C(C)Nc3nc(-c4ccco4)nn32)cc1` (stereo unspecified) the “activity change, negative = inhibition” value was inactive: 6.23%.
In the case of `Cc1cc(/C=C(/C#N)c2nc3ccccc3[nH]2)c(C)n1-c1ccccc1C(=O)O`, the “activity change, negative = inhibition” value is reported as inactive: -5.15% [at 46.1 µM].
For `Cc1ccc(NC(=O)O/N=C/c2ccc(Br)cc2)cc1`, the “activity change, negative = inhibition” value was inactive: 8.42% [at 46.1 µM].
For `Oc1ccc(Br)cc1-c1ccnn1-c1ccccc1`, the Potency was active: 8.91 µM.
For `COc1ccc(NC(=O)c2ccco2)cn1`, the Potency was inconclusive: 8.91 µM [activator, partial curve, poor fit].
For `O=[N+]([O-])c1cccc2nc3ccccc3c(NCCCn3ccnc3[N+](=O)[O-])c12`, the Potency was inconclusive: 0.112 µM [inhibitor, full curve, poor fit].
With `N/C(=N\N=C\c1ccc(O)cc1)c1nonc1N` the Potency was active: 20.6 µM.
In the case of `COC(=O)/C=C1\S/C(=N/N=C/c2ccc(Cl)cc2)NC1=O`, the “activity change, negative = inhibition” value is reported as inactive: 0.497% [at 46.1 µM].
For `O=C(CN1C(=O)C2C3C=CC(C3)C2C1=O)Nc1ccc2c(c1)OCCO2` (stereo unspecified), the Potency was inconclusive: 35.5 µM [activator, single point].
With `O=C(N/N=C/c1c[nH]c2ccccc12)c1ccc(Cl)cc1` the Potency was inconclusive: 39.8 µM [activator, partial curve, poor fit].
With `CCc1cc(C(=O)NC2CCCc3c2cnn3-c2cccc(C)c2C)n(C)n1` (stereo unspecified) the Potency was inconclusive: 0.0891 µM [inhibitor, full curve, poor fit].
In the case of `COC(=O)c1ccc(COC(=O)c2ccc(S(=O)(=O)N3CCC(C)CC3)cc2)o1`, the Potency is reported as inconclusive: 5.01 µM [activator, partial curve, poor fit].
For `Cc1ccc(S(=O)(=O)NCc2c(-c3ccccc3)c3cc(Cl)ccc3[nH]c2=O)cc1`, the “activity change, negative = inhibition” value was inactive: 0.34%.
For `C[N+]1(C)CCC(OC(=O)C(c2ccccc2)c2ccccc2)CC1`, the Potency was inconclusive: 0.0291 µM [activator, full curve, poor fit].
In the case of `O=C(CSc1nnc(NC(=O)C2CC2)s1)NCc1ccco1`, the Potency is reported as inconclusive: 29.1 µM [inhibitor, single point].
In the case of `CCCN1/C(=C2/SC(=S)N(CC)C2=O)C=Cc2ccccc21`, the “activity change, negative = inhibition” value is reported as inactive: -5.39%.
For `Cc1cc(Nc2cccc(C(F)(F)F)c2)n2nc(C)nc2n1`, the Potency was inconclusive: 1.78 µM [activator, partial curve, poor fit].
In the case of `Cc1ccc(C)c(NC(=O)CSc2nnc(-c3n[nH]c4ccccc34)o2)c1`, the Potency is reported as inconclusive: 5.62 µM [inhibitor, single point].
In the case of `Cc1nc2ccccc2c(=O)n1N`, the “activity change, negative = inhibition” value is reported as inactive: 0.247%.
With `CC1=C(C(=O)OCc2ccc3c(c2)OCO3)C(c2ccc(Cl)cc2)NC(=O)N1` (stereo unspecified) the Potency was active: 2.06 µM.
For `CSc1nc(N)n2nc(C(C)(C)C)cc2n1`, the “activity change, negative = inhibition” value was inactive: 0.247%.
For `CC(OC(=O)C1CCCCC1)c1nc2ccccc2[nH]1` (stereo unspecified), the Potency was inconclusive: 5.62 µM [inhibitor, single point].
For `Cc1ccccc1OCCn1cc(C(=O)O)c2ccccc21`, the “activity change, negative = inhibition” value was inactive: 17.1% [at 46.1 µM].
In the case of `Cc1cccc(/C(N)=N/OC(=O)c2ccccc2Cl)c1`, the Potency is reported as inconclusive: 11.2 µM [inhibitor, partial curve, poor fit].
For `O=C(c1ccccc1)c1ccc(OCCOCCN2CCN(Cc3ccccc3)CC2)cc1`, the Potency was inconclusive: 22.4 µM [inhibitor, partial curve, poor fit].
For `N=c1oc2cc(O)ccc2cc1C(=O)Nc1ccc(Cl)cc1`, the Potency was inconclusive: 31.6 µM [inhibitor, single point].
For `Cc1ccc(CCNC(=O)C2CCC(CNc3c(N4CCCC4)c(=O)c3=O)CC2)cc1` (stereo unspecified), the Potency was inconclusive: 0.282 µM [activator, full curve, poor fit].
With `COCCc1ccc(OC[C@H](O)CNC(C)C)cc1` the Potency was inconclusive: 6.31 µM [activator, full curve].
In the case of `Cc1cc(Br)c(NC(=O)COC(=O)CSc2nnc(-c3ccc(Cl)cc3)o2)c(Br)c1`, the Potency is reported as inconclusive: 0.251 µM [inhibitor, partial curve, poor fit].
For `CCc1c(C)nc(SCC(N)=O)c(C#N)c1C`, the “activity change, negative = inhibition” value was inactive: 7.58%.
In the case of `N/C(=N\OC(=O)CN1C(=O)c2ccccc2C1=O)c1ccc(Br)cc1`, the “activity change, negative = inhibition” value is reported as inactive: 4.16%.
In the case of `O=C(Nc1nc(-c2ccncc2)cs1)c1ccco1`, the Potency is reported as inconclusive: 35.5 µM [inhibitor, single point].
In the case of `Cn1c(=O)c2[nH]c(SCCN3CCOCC3)nc2n(C)c1=S`, the “activity change, negative = inhibition” value is reported as inactive: 7.95% [at 46.1 µM].
For `O=P(CCCCCCCCCP(=O)(c1ccccc1)c1ccccc1)(c1ccccc1)c1ccccc1`, the Potency was inconclusive: 12.6 µM [inhibitor, partial curve, poor fit].
In the case of `CCOc1cc(/C=N/NC(=O)C2CCCC2)ccc1OC(C)C`, the “activity change, negative = inhibition” value is reported as inactive: -18.3% [at 46.1 µM].
With `COc1cc2c(cc1OC)CN(CC(=O)NC(=O)NCc1ccccc1)CC2` the “activity change, negative = inhibition” value was inactive: 1.66% [at 46.1 µM].
For `O=C(/C=C/c1ccc(-c2ccc(F)cc2)o1)N1CCCC1`, the Potency was inconclusive: 2.51 µM [activator, partial curve, poor fit].
With `COc1ccc(C(=O)Nc2ccccc2N2CCOCC2)cc1Br` the Potency was “inactive”.
With `COc1ccc(S(=O)(=O)NCCc2c[nH]c3ccccc23)cc1OC` the “activity change, negative = inhibition” value was inactive: -2.61% [at 46.1 µM].
In the case of `CCN(C(=O)COC(=O)c1cc(S(=O)(=O)N2CCOCC2)ccc1F)C1CCS(=O)(=O)C1` (stereo unspecified), the Potency is reported as inconclusive: 35.5 µM [activator, single point].
In the case of `Cc1ccc(CNC(=O)c2sc3nc(C)cc(C)c3c2-n2cccc2)cc1`, the “activity change, negative = inhibition” value is reported as inactive: 0.235% [at 46.1 µM].
For `CC(C)C(NC(=O)CNC(=O)OC(C)(C)C)C(=O)NCc1ccc(Cl)cc1` (stereo unspecified), the Potency was inconclusive: 31.6 µM [activator, single point].
For `CCOc1ccccc1C1NC(=O)CCC1[N+](=O)[O-]` (stereo unspecified), the Potency was inconclusive: 0.708 µM [inhibitor, full curve].
For `c1ccc(-c2nc3ccccn3c2NCc2ccc3c(c2)OCO3)cc1`, the “activity change, negative = inhibition” value was inactive: 28.3%.
With `C=CCCC(=O)N1CCC(n2nccc2NC(=O)c2ccc(OC)cc2)CC1` the Potency was inconclusive: 2 µM [activator, partial curve, poor fit].
With `COc1cccc(CNc2nc3nc4c(c(=O)n3[nH]2)CCC4)c1` the Potency was inconclusive: 1.26 µM [activator, single point].
In the case of `COc1cccc2c1cc1c(=O)n(CC(=O)N3CCN(c4ccccc4F)CC3)nc(C)n12`, the “activity change, negative = inhibition” value is reported as inactive: 11% [at 46.1 µM].
For `CC(C)(C)c1cc(NCc2ccccn2)n2ncc(-c3ccccc3)c2n1`, the Potency was inconclusive: 17.8 µM [inhibitor, partial curve, poor fit].
